# The source gives many values for each of these; only a part stands here.
# System: human colon carcinoma cell strain WiDr
# Assay: Microarray analysis (2), reviewed conditions, intron expression, Table 3
# Type: cell-based
# Experimental: WiDr cells were first suspended in RPMI1640 medium (containing 10% FBS, penicillin, and streptomycin) and seeded in a 10 cm dish (2×10^6 cells/dish). After an overnight culture in an incubator with 5% carbon dioxide gas at 37° C., the medium was changed with medium containing 14 nM of (8E,12E,14E)-7-((4-cycloheptylpiperazin-1-yl)carbonyl)oxy-3,6,16,21-tetrahydroxy-6,10,12,16,20-pentamethyl-18,19-epoxytricosa-8,12,14-trien-11-olide or containing vehicle alone. After cultured for additional six hours, TRI reagent (SIGMA) were added to the cells and the cells were harvested. RNA was purified in accordance with the protocol of TRI reagent, followed by further purification with RNeasy (QIAGEN). Absorbance at 260 nm was measured to quantify an amount of RNA. This experiment was repeated three times and RNA samples (n=3) were prepared.
# Ribosomal RNA was removed from 1 μg of each total RNA of control cells (n=3) and cells with the treatment (n=3) by using RiboMinus Human/Mouse Transcriptome Isolation Kit (Invitrogen). Single stranded cDNA synthesis, double stranded cDNA synthesis, cRNA synthesis, second single stranded cDNA synthesis, cDNA fragmentation, and cDNA labeling in order were carried out for the total RNA from which ribosomal RNA was removed, by using GeneChip Whole Transcript Sense Target Labeling and Control Reagents (Affymetrix) to make a cDNA probe. The cDNA probe was used for hybridization with Human Exon 1.0 ST Array (Affymetrix). The array was washed and stained, and luminescence intensity was measured by a scanner.
# Analysis conditions were reviewed in the data used in Example 3. Genes containing increased introns upon treatment with (8E,12E,14E)-7-((4-cycloheptylpiperazin-1-yl)carbonyl)oxy-3,6,16,21-tetrahydroxy-6,10,12,16,20-pentamethyl-18,19-epoxytricosa-8,12,14-trien-11-olide were identified.
# In order to consider the analysis conditions, variations in the data from the samples with identical conditions were studied. […] It turned out that, by analyzing under conditions where the expression level was more than 100 and change in the expression level was more than five times, a probe set with increased expression can be extracted.
# Probe sets showing that the normalized change in the level expression of the probe set in the group with the treatment was more than 5 times; the expression level of the probe set and the gene in the group with the treatment were more than 100; and probe set annotation was “extended, full, free”, were picked out. Welch's t-test was conducted with the probe sets extracted for the treated group and the control group to determine a p and q value. A gene containing the probe sets with the q value of less than 5% was determined as a candidate gene with increased expression level of the intron regions (Table 3).
# In Table 3, for each gene evaluated, gene name (Gene Name), abbreviated name (Gene Symbol), accession number (Accession), alias name (Synonym), transcription cluster number in Human Exon 1.0 ST Array (Human Exon 1.0 ST Array Transcript Cluster ID), chromosome number (Chromosome), type of strand (Strand), start region (Start), stop region (Stop), and change in expression level (Fold Change) were respectively shown.
smiles,measurement,setting,value
"CCC(O)C(C)C1OC1CC(C)(O)/C=C/C=C(\C)C1OC(=O)CC(O)CCC(C)(O)C(OC(=O)N2CCN(C3CCCCCC3)CC2)/C=C/C1C (centres unmarked) [E7107, (8E,12E,14E)-7-((4-cycloheptylpiperazin-1-yl)carbonyl)oxy-3,6,16,21-tetrahydroxy-6,10,12,16,20-pentamethyl-18,19-epoxytricosa-8,12,14-trien-11-olide]",Fold Change,"gene TFG, Transcript Cluster ID 2633773, intron expression, treated vs control",9.22
same,Fold Change,"gene TGFBR2, change in expression level, treated vs control",6.21
same,Fold Change,"gene THOC1, change in expression level, treated vs control",6.36
same,Fold Change,"gene THOC5, change in expression level, treated vs control",14.15
same,Fold Change,"gene THRAP2, change in expression level, treated vs control",5.96
same,Fold Change,"gene TIMM23, change in expression level, treated vs control",28.32
same,Fold Change,"gene TIMP1, change in expression level, treated vs control",11.27
same,Fold Change,"gene TINF2, change in expression level, treated vs control",11.82
same,Fold Change,"gene TJP1, intron expression, treated vs control",7.30
same,Fold Change,"gene TJP2, Transcript Cluster ID 3173880",5.27
same,Fold Change,"gene TLOC1, change in expression level, treated vs control",6.09
same,Fold Change,"gene TM2D2, change in expression level, treated vs control",6.38
same,Fold Change,"gene TM4SF1, Transcript Cluster ID 2700365",5.34
same,Fold Change,"gene TMEM5, Transcript Cluster ID 3419585",5.20
same,Fold Change,"gene TMEM87A, change in expression level, treated vs control",6.46
same,Fold Change,"gene TMEM123, change in expression level, treated vs control",6.18
same,Fold Change,"gene TMEM138, change in expression level, treated vs control",6.02
same,Fold Change,"gene TMEM170, Transcript Cluster ID 3699581",5.15
same,Fold Change,"gene TMEPAI, intron expression, treated vs control",6.87
same,Fold Change,"gene TMSB10, Transcript Cluster ID 2491271, intron expression, treated vs control",9.85
same,Fold Change,"gene TNFRSF1A, Transcript Cluster ID 3441849, intron expression, treated vs control",9.60
same,Fold Change,"gene TNKS1BP1, change in expression level, treated vs control",5.98
same,Fold Change,"gene TNS4, Transcript Cluster ID 3756262, intron expression, treated vs control",9.51
same,Fold Change,"gene TOMM70A, intron expression, treated vs control",6.76
same,Fold Change,"gene TOP2A, intron expression, treated vs control",7.15
same,Fold Change,"gene TOPBP1, Transcript Cluster ID 2695941",5.07
same,Fold Change,"gene TPM1, change in expression level, treated vs control",6.21
same,Fold Change,"gene TPX2, intron expression, treated vs control",7.37
same,Fold Change,"gene TRAF6, change in expression level, treated vs control",6.29
same,Fold Change,"gene TRIM26, Transcript Cluster ID 2948259",5.13
same,Fold Change,"gene TRIM44, Transcript Cluster ID 3326842, intron expression, treated vs control",9.03
same,Fold Change,"gene TRIO, intron expression, treated vs control",7.00
same,Fold Change,"gene TRMU, intron expression, treated vs control",7.29
same,Fold Change,"gene TROVE2, intron expression, treated vs control",6.62
same,Fold Change,"gene TSC1, change in expression level, treated vs control",6.27
same,Fold Change,"gene TSC22D2, intron expression, treated vs control",6.91
same,Fold Change,"gene TSPAN5, Transcript Cluster ID 2778856, intron expression, treated vs control",9.53
same,Fold Change,"gene TSPAN14, Transcript Cluster ID 3254521",5.30
same,Fold Change,"gene TSR1, change in expression level, treated vs control",44.77
same,Fold Change,"gene TTC17, change in expression level, treated vs control",6.13
same,Fold Change,"gene TUBB, Transcript Cluster ID 2901913",5.08
same,Fold Change,"gene TXNIP, intron expression, treated vs control",6.72
same,Fold Change,"gene TXNL1, Transcript Cluster ID 3809324",5.37
same,Fold Change,"gene TXNRD1, intron expression, treated vs control",7.39
same,Fold Change,"gene UBB // C17orf45, change in expression level, treated vs control",6.08
same,Fold Change,"gene UBC, intron expression, treated vs control",6.61
same,Fold Change,"gene UBE2C // PAK3, Transcript Cluster ID 3887049",5.22
same,Fold Change,"gene UBE2M // UBE2MP1, intron expression, treated vs control",6.54
same,Fold Change,"gene UBE3A, change in expression level, treated vs control",19.35
same,Fold Change,"gene UBL3, Transcript Cluster ID 3507798",5.42
same,Fold Change,"gene UBQLN1 // DIDO1, Transcript Cluster ID 3212143",5.44
same,Fold Change,"gene UCHL3, Transcript Cluster ID 3494102",5.08
same,Fold Change,"gene UPF1, Transcript Cluster ID 3825383",5.34
same,Fold Change,"gene USF1 // ARHGAP30, intron expression, treated vs control",7.17
same,Fold Change,"gene USP7, change in expression level, treated vs control",6.30
same,Fold Change,"gene USP10, intron expression, treated vs control",7.27
same,Fold Change,"gene USP15, change in expression level, treated vs control",6.41
same,Fold Change,"gene USP38, change in expression level, treated vs control",13.94
same,Fold Change,"gene USP47, change in expression level, treated vs control",12.32
same,Fold Change,"gene USP53, intron expression, treated vs control",7.35
same,Fold Change,"gene USPL1, Transcript Cluster ID 3484005",5.20
same,Fold Change,"gene UTP6, Transcript Cluster ID 3752437, intron expression, treated vs control",10.30
same,Fold Change,"gene UTP15, intron expression, treated vs control",6.57
same,Fold Change,"gene VAMP3, intron expression, treated vs control",7.35
same,Fold Change,"gene VDAC2, intron expression, treated vs control",7.41
same,Fold Change,"gene VEZF1, change in expression level, treated vs control",6.34
same,Fold Change,"gene VIL2, change in expression level, treated vs control",12.62
same,Fold Change,"gene WASF2, intron expression, treated vs control",6.81
same,Fold Change,"gene WDR36, Transcript Cluster ID 2823820, intron expression, treated vs control",9.03
same,Fold Change,"gene WDR46, intron expression, treated vs control",7.16
same,Fold Change,"gene WDR73, change in expression level, treated vs control",20.03
same,Fold Change,"gene WDR74, Transcript Cluster ID 3376235, intron expression, treated vs control",10.13
same,Fold Change,"gene WEE1, change in expression level, treated vs control",12.54
same,Fold Change,"gene WHSC1, Transcript Cluster ID 2715076",5.23
same,Fold Change,"gene WNK1, intron expression, treated vs control",6.98
same,Fold Change,"gene WNT11, intron expression, treated vs control",6.53
same,Fold Change,"gene WTAP // ACAT2, Transcript Cluster ID 2934089",5.04
same,Fold Change,"gene XBP1, change in expression level, treated vs control",6.25
same,Fold Change,"gene XPO4, Transcript Cluster ID 3504434",5.43
same,Fold Change,"gene XPO6, Transcript Cluster ID 3686339",5.34
same,Fold Change,"gene YAP1, change in expression level, treated vs control",11.01
same,Fold Change,"gene YES1, Transcript Cluster ID 3795942, intron expression, treated vs control",9.48
same,Fold Change,"gene YTHDF2, Transcript Cluster ID 2327630",5.15
same,Fold Change,"gene YTHDF3, intron expression, treated vs control",6.55
same,Fold Change,"gene YWHAB, change in expression level, treated vs control",13.72
same,Fold Change,"gene ZBTB7A, Transcript Cluster ID 3846594",5.24
same,Fold Change,"gene ZBTB11, intron expression, treated vs control",7.02
same,Fold Change,"gene ZDHHC5, Transcript Cluster ID 3331433",5.14
same,Fold Change,"gene ZFP91 // CNTF, Transcript Cluster ID 3331730, intron expression, treated vs control",9.54
same,Fold Change,"gene ZNF146 // ZNF268, Transcript Cluster ID 3831260",5.40
same,Fold Change,"gene ZNF192, change in expression level, treated vs control",6.23
same,Fold Change,"gene ZNF227 // ZNF155, Transcript Cluster ID 3835544",5.21
same,Fold Change,"gene ZNF289, intron expression, treated vs control",6.84
same,Fold Change,"gene ZNF313, change in expression level, treated vs control",6.39
same,Fold Change,"gene ZNF317 // ZNF658, change in expression level, treated vs control",19.64
same,Fold Change,"gene ZNF330, intron expression, treated vs control",6.87
same,Fold Change,"gene ZNF410, Transcript Cluster ID 3543884, intron expression, treated vs control",10.23
same,Fold Change,"gene ZNF512, Transcript Cluster ID 2474651",5.40
same,Fold Change,"gene ZNF592, change in expression level, treated vs control",6.44
same,Fold Change,"gene ZNF707, Transcript Cluster ID 3119765",5.39
same,Fold Change,"gene ZNF787, Transcript Cluster ID 3871730",5.18
same,Fold Change,"gene ZNFX1 // GSDML, Transcript Cluster ID 3908831",5.44
same,Fold Change,"gene ZRANB2, change in expression level, treated vs control",6.03
same,Fold Change,"gene bA16L21.2.1 // GNG10, Transcript Cluster ID 3184940, intron expression, treated vs control",10.05
